Results deposited as PubChem BioAssay AID652243 (Drosophila RNAi Screening Center, 2013)

- Screen: 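Knock-downs that decrease or increase androgen receptor reporter signal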 (primary screen)
- Cell system: Drosophila S2R+ cells
- Knock-down reagent: long dsRNA against Drosophila genes
- Time to read-out: 72 h (48 h, then 24 h hormone)
- Conditions: synthetic androgen R1881 at 10 nM for 24 h
- Measured: 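Per-well raw luminescence of the androgen-driven firefly reporter and of the Renilla control, two replicates each, without normalisation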
- Reading the numbers: firefly reporter light: higher = more light from androgen-responsive reporter; Renilla control light: higher = more constitutive control signal (cell number, transfection)
- Hit rule: 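Hit when the log firefly-to-Renilla ratio dropped or increased by a fixed fold versus the mean of GFP or LacZ controls across duplicate plates; lowering cut given as 1.5 and as 3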
- Meaning of the calls: active = hit: reporter lowered or raised; inactive = no hit
The deposit covers about 24,000 reagents; shown is a random part of those with a known target gene and a result. Of all reagents, 246 (1%) got an active call. 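Plates not normalised; calls are printed but the firefly/Renilla ratio behind them is not deposited; fold cut for lowering reported inconsistently.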 Raw values vary from plate to plate and are shown uncorrected. Reagent sequences are not shown. Not stated in the record: the amount of reagent.

Gene	amplicon	firefly reporter light, replicate 1	firefly reporter light, replicate 2	Renilla control light, replicate 1	Renilla control light, replicate 2	call
CG14721	DRSC29246	1.17e6	1.08e6	1.53e6	1.42e6	inactive
nAChRalpha7	DRSC20078	3.80e5	2.05e5	6.48e5	4.47e5	inactive
nAChRalpha7	DRSC20081	2.68e5	1.46e5	8.11e5	4.58e5	inactive
CG42564	DRSC12518	75977	79066	8.33e5	6.95e5	inactive
CG4291	DRSC00650	8.70e5	1.04e6	2.72e6	2.30e6	inactive
CG4291	DRSC28410	6.57e5	1.15e6	9.73e5	1.67e6	inactive
Cyp4d20	DRSC08654	86442	63957	1.02e6	1.13e6	inactive
Cyp4d20	DRSC25418	5.94e5	4.20e5	6.50e5	5.72e5	inactive
Erasp	DRSC07111	1.01e6	1.25e6	1.45e6	2.08e6	inactive
Start1	DRSC04384	5.57e5	6.12e5	1.00e6	1.12e6	inactive
Start1	DRSC28343	4.11e5	7.02e5	1.10e6	1.48e6	inactive
CG13658	DRSC14659	2.57e5	2.32e5	2.90e6	2.39e6	inactive
CG13658	DRSC25434	1.13e6	7.89e5	1.17e6	1.29e6	inactive
CG3021	DRSC18165	1.62e5	1.92e5	2.68e6	2.29e6	inactive
CG3021	DRSC18652	2.60e5	2.65e5	4.69e6	3.89e6	inactive
Cog3	DRSC00585	5.33e5	6.73e5	1.20e6	1.29e6	inactive
RSG7	DRSC20274	6.21e5	4.37e5	4.90e6	3.60e6	inactive
RSG7	DRSC22852	4.05e5	8.36e5	1.03e6	1.52e6	inactive
CG1542	DRSC15035	81222	50384	7.46e5	3.05e5	inactive
CG1542	DRSC28631	3.91e5	4.49e5	8.53e5	8.33e5	inactive
dlt	DRSC08705	90337	88304	8.88e5	8.53e5	inactive
dlt	DRSC26168	2.91e5	1.95e5	5.70e5	6.47e5	inactive
RpL7A	DRSC18709	1.07e5	1.72e5	1.50e6	1.69e6	inactive
RpL7A	DRSC28833	2.30e5	2.05e5	5.32e5	6.28e5	inactive
CG43117	DRSC13767	7.59e5	8.17e5	8.24e5	9.81e5	inactive
CG43117	DRSC26060	2.66e5	2.83e5	7.75e5	7.44e5	inactive
CG13887	DRSC08357	9.23e5	1.15e6	1.46e6	1.63e6	inactive
Ufd4	DRSC02871	2.31e5	2.85e5	1.05e6	1.24e6	inactive
CG5404	DRSC15793	4.49e5	5.53e5	1.58e6	1.35e6	inactive
CG5404	DRSC28832	5.26e5	5.75e5	5.86e5	6.30e5	inactive
CG5808	DRSC14124	55795	87058	4.69e5	4.83e5	inactive
Pp1-87B	DRSC16794	1.48e5	2.05e5	8.06e5	9.17e5	inactive
Pp1-87B	DRSC23299	7.56e5	9.42e5	1.26e6	1.64e6	inactive
Pp1-87B	DRSC27290	6.16e5	5.42e5	7.40e5	7.78e5	inactive
CG8379	DRSC16414	1.22e5	1.31e5	2.50e6	1.99e6	inactive
CG9689	DRSC18440	1.04e5	1.02e5	7.49e5	8.48e5	inactive
CG9689	DRSC28305	3.56e5	5.24e5	9.36e5	1.49e6	inactive
CG10663	DRSC09770	2.54e5	1.70e5	2.28e6	9.58e5	inactive
GatB	DRSC15807	1.10e5	1.99e5	2.23e6	2.46e6	inactive
GatB	DRSC27887	7.98e5	3.63e5	1.61e6	1.08e6	inactive

Part of the list above, set out differently:
CG1542 [DRSC28631]
- firefly reporter light, replicate 1: 3.91e5
- firefly reporter light, replicate 2: 4.49e5
- Renilla control light, replicate 1: 8.53e5
- Renilla control light, replicate 2: 8.33e5
- call: inactive

dlt [DRSC08705]
- firefly reporter light, replicate 1: 90337
- firefly reporter light, replicate 2: 88304
- Renilla control light, replicate 1: 8.88e5
- Renilla control light, replicate 2: 8.53e5
- call: inactive

dlt [DRSC26168]
- firefly reporter light, replicate 1: 2.91e5
- firefly reporter light, replicate 2: 1.95e5
- Renilla control light, replicate 1: 5.70e5
- Renilla control light, replicate 2: 6.47e5
- call: inactive

RpL7A [DRSC18709]
- firefly reporter light, replicate 1: 1.07e5
- firefly reporter light, replicate 2: 1.72e5
- Renilla control light, replicate 1: 1.50e6
- Renilla control light, replicate 2: 1.69e6
- call: inactive

RpL7A [DRSC28833]
- firefly reporter light, replicate 1: 2.30e5
- firefly reporter light, replicate 2: 2.05e5
- Renilla control light, replicate 1: 5.32e5
- Renilla control light, replicate 2: 6.28e5
- call: inactive

CG43117 [DRSC13767]
- firefly reporter light, replicate 1: 7.59e5
- firefly reporter light, replicate 2: 8.17e5
- Renilla control light, replicate 1: 8.24e5
- Renilla control light, replicate 2: 9.81e5
- call: inactive
